PubChem BioAssay AID1259308 – NCATS – 2017
In all, the deposit lists about 59,000 reagents; below is a part drawn at random. About 1,510 of them (2.6%) count as active. 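Calls use total luciferase alone and ignore viability, so some active siRNAs may act by altering cell number.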 Entries without a mark were called inactive. Not all columns of the deposit are shown.

Purpose: 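Candidate targets for better recombinant protein yield in mammalian cells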 (primary screen)
System: human HEK293 embryonic kidney cells stably expressing firefly luciferase (HEK-CMV-Luc2-Hygro)
Reagent: single siRNA against human genes, 0.8 pmol siRNA per well
Time to read-out: 72 h
Measured: 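Luciferase light (ONE-Glo) measured on one replicate plate set and viability (CellTiter-Glo) on the other, scaled to a negative control siRNA, with robust z-scores and luciferase per cell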
Direction: total luciferase, z-score and total luciferase, % of control: higher = more reporter protein produced
Hit rule: 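Active when the median/MAD z-score for overall luciferase is greater than 3; a gene was taken forward for validation with new siRNAs if at least two of its three siRNAs passed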
Calls: active = raised luciferase; inactive = no rise

MAP2K6 (mitogen-activated protein kinase kinase 6) [SID160715021] gave total luciferase, z-score -0.947; total luciferase, % of control 63.1.
MAP2K6 (mitogen-activated protein kinase kinase 6) [SID160715023] scored total luciferase, z-score -0.21; total luciferase, % of control 77.7.
Depletion of MAP2K6 (mitogen-activated protein kinase kinase 6) [SID160715024] gave: total luciferase, z-score -1.32; total luciferase, % of control 55.7.
With knock-down of ZCWPW2 (zinc finger CW-type and PWWP domain containing 2) [SID160759198], the record shows total luciferase, z-score 6.58 (active); total luciferase, % of control 213.
ZCWPW2 (zinc finger CW-type and PWWP domain containing 2) [SID160759199] scored total luciferase, z-score -0.216; total luciferase, % of control 77.6.
ZCWPW2 (zinc finger CW-type and PWWP domain containing 2) [SID160759200] gave total luciferase, z-score -0.633; total luciferase, % of control 69.3.
For PLEKHA6 (pleckstrin homology domain containing A6) [SID160732405], the entry reads total luciferase, z-score 2.89; total luciferase, % of control 139.
PLEKHA6 (pleckstrin homology domain containing A6) [SID160732415] scored total luciferase, z-score 0.0953; total luciferase, % of control 83.8.
For PLEKHA6 (pleckstrin homology domain containing A6) [SID160732425], the values are total luciferase, z-score 3.82 (active); total luciferase, % of control 158.

Quoted from the entries so far (2 entries):
MAP2K6 (mitogen-activated protein kinase kinase 6) [SID160715024]: total luciferase, z-score = -1.32; total luciferase, % of control = 55.7
ZCWPW2 (zinc finger CW-type and PWWP domain containing 2) [SID160759198]: total luciferase, z-score = 6.58 (active); total luciferase, % of control = 213

The results go on.
Knock-down of IGFALS [SID160775626] came out at: total luciferase, z-score -1.71; total luciferase, % of control 47.9.
Against IGFALS [SID160775627], the entry reads total luciferase, z-score -0.962; total luciferase, % of control 62.8.
Against IGFALS [SID160775628] the deposit lists total luciferase, z-score 0.437; total luciferase, % of control 90.6.
With knock-down of ZSCAN10 (zinc finger and SCAN domain containing 10) [SID160752863] the results were total luciferase, z-score 1.02; total luciferase, % of control 102.
Against ZSCAN10 (zinc finger and SCAN domain containing 10) [SID160752864], the entry reads total luciferase, z-score -0.403; total luciferase, % of control 73.9.
For ZSCAN10 (zinc finger and SCAN domain containing 10) [SID160752865], the entry reads total luciferase, z-score -1.18; total luciferase, % of control 58.5.
ZZEF1 (zinc finger ZZ-type and EF-hand domain containing 1) [SID160735545] showed total luciferase, z-score 0.4; total luciferase, % of control 89.8.
With knock-down of ZZEF1 (zinc finger ZZ-type and EF-hand domain containing 1) [SID160735546] the results were total luciferase, z-score -1.43; total luciferase, % of control 53.5.
Silencing of ZZEF1 (zinc finger ZZ-type and EF-hand domain containing 1) [SID160735547] gave: total luciferase, z-score -0.545; total luciferase, % of control 71.1.
Knock-down of MBLAC2 (metallo-beta-lactamase domain containing 2) [SID160759325] gave: total luciferase, z-score 0.47; total luciferase, % of control 91.2.
With knock-down of MBLAC2 (metallo-beta-lactamase domain containing 2) [SID160759326] the results were total luciferase, z-score 0.58; total luciferase, % of control 93.4.
For MBLAC2 (metallo-beta-lactamase domain containing 2) [SID160759327] the deposit lists total luciferase, z-score 0.077; total luciferase, % of control 83.4.
